# Values quoted from earlier work in US20120135053A1, “NANOPARTICULATE TELMISARTAN COMPOSITIONS AND PROCESS FOR THE PREPARATION THEREOF” (priority 2009, published 2012).
# The name of at least one read-out is uncertain.
# Conditions: oral administration; cited from earlier work
compound,measurement,value
"CCCc1nc2c(C)cc(-c3nc4ccccc4n3C)cc2n1Cc1ccc(-c2ccccc2C(=O)O)cc1 [Telmisartan, 4′-[(1,4′-dimethyl-2′-propyl [2,6′-bi-1H-benzimidazol]-1′-yl)methyl]-[1,1′-biphenyl]-2-carboxylic acid]",time to peak concentrations (Cmax),0.5 to 1 h
